According to PMC12264794, “Homoleptic complexes of titanium(IV) fused with O^N^O Schiff base derivatives: design, BSA–DNA interaction, molecular docking, DFT and cytotoxicity” (RSC Advances, 2025):

Assays:
CT-DNA [1] = experiment: Competitive EtBr displacement fluorescence quenching on CT-DNA; assay type: binding, calf; details: Scatchard plot
Method: Using fluorescence spectroscopy, the competitive binding relationship between metal complexes and CT-DNA bound to ethidium bromide was investigated. EtBr and CT-DNA solutions at a 5 mM concentration were made in PBS buffer (pH 7.4) for the fluorescence studies. After that, the reference solutions were allowed to settle at room temperature for an hour and the CT-DNA reference solution (200 μM) was coupled to ethidium bromide (50 μM) and allowed to rest for the specified period. The excitation and emission wavelengths were set at 460 nm and incremental addition of Ti(IV) complex concentrations ranging from 0 to 80 μM were used to titrate constant concentrations of EtBr-CT-DNA solution.[43,44]
A known volume of 200 μM CT-DNA (5 Mm) and 50 μM EB was mixed with an aqueous PBS buffer to make an EB-CT-DNA solution. The mixture was then kept at room temperature for 20 minutes before the complexes were titrated. Analysis of the competitive interaction mechanisms of the complexes towards CT-DNA involved the incremental addition of Ti(IV) complexes to the mixture of EB-CT-DNA. The modification in the emission spectral profile of EB-DNA indicated the impact of the addition of the complexes and there was a noticeable decrease in inflorescence intensity when the Ti(IV) complexes (0–100 μM) were added to the EB-CT-DNA system (Fig. 4(a), ESI Fig. S63 ^† and Table 2).
The linear plot of I0/I versus [complex] […] KSV is the Stern–Volmer quenching constant, and [Q] is the quencher concentration.6 Kapp × [Complex]50 = KEtBr × [EtBr]For the Ti(IV) complexes, Kapp (the apparent binding constant) was calculated using eqn (6), where KEtBr (1.0 × 10^7 M^−1) is the DNA binding constant of EB, [EtBr] is the concentration of EB = 10 μM and [Complex]50 denotes the complex concentration at which the fluorescence intensity of the DNA-EB adduct is reduced to 50%. […] Furthermore, the number of binding sites (n) and the equilibrium binding constant K were ascertained by using the Scatchard eqn (7):7 Log(I0 − I/I) = log K + n log[Q]where I0 is the fluorescence intensity of CT-DNA + EtBr in the absence of complex and I points to the fluorescence intensities of CT-DNA in the presence of a complex of concentration [Q]. The significant quenching in fluorescence intensity of all metal complexes (Table 2), the Stern–Volmer (ESI Fig. S64 ^†) and Scatchard plots (Fig. 4(c), ESI Fig. S65 ^† and Table 2), and other computations performed, supported the strong groove-binding interaction mode with CT-DNA.

CT-DNA [2] = experiment: UV-vis absorption titration with CT-DNA; assay type: binding, calf; details: on addition of CT-DNA
Method: The UV-vis titration technique was employed to conduct DNA binding investigations of the newly synthesized Ti(IV)complexes. The binding interactions between Ti(IV) complexes and CT-DNA 5 mM (5 × 10^−5 M) produced in PBS buffer were assessed in a 5 mM phosphate buffer (PBS) with a pH of 7.4. The ratio of UV absorbance of CT-DNA at each position, 260 and 280 nm, was confirmed. The concentration of each nucleotide was calculated using the molar absorption coefficient (6600 m^−1) of CT-DNA at 260 nm. Additional dilutions were made in 5 mM PBS buffer solution, and stock solutions of metal complexes were prepared in DMSO. DNA binding experiments were performed with a fixed concentration of the complex (20 μM) and increasing concentrations of CT-DNA (0–80 μM) in sample solutions to detect the CT-DNA absorbance peak.[41,42]
UV-vis spectra typically show a shift in wavelength and a change in absorption spectra as a result of the interaction of the Ti(IV) complexes with DNA. […] These modifications represent the properties of the complexes attached to DNA by covalent or noncovalent interactions. Then, using eqn (4), the binding characteristics for the aforementioned complexes, including binding constant (Kb) and binding sites, were determined.4 [drawing 4] where εa, εf, and εb represent the apparent extinction coefficient of the complex, the extinction coefficient of the complex in its free form and the extinction coefficient of the complex when completely bound to DNA.

Which results are given for `[O-]C(=NN=Cc1ccccc1[O-])c1ccncc1.[O-]C(=NN=Cc1ccccc1[O-])c1ccncc1.[Ti+4]` [Ti-1-IS]?
n, number of binding sites (CT-DNA [1]): 1.45; Change in absorbance intensity (CT-DNA [2]): Hyperchromism

What does the source list for `[O-]C(=NN=Cc1c([O-])ccc2ccccc12)c1ccncc1.[O-]C(=NN=Cc1c([O-])ccc2ccccc12)c1ccncc1.[Ti+4]` [Ti-2-IN]?
n, number of binding sites (CT-DNA [1]): 1.06; Change in absorbance intensity (CT-DNA [2]): Hyperchromism

Which results are given for `COc1cccc(C=NN=C([O-])c2ccncc2)c1[O-].COc1cccc(C=NN=C([O-])c2ccncc2)c1[O-].[Ti+4]` [Ti-3-IO]?
n, number of binding sites (CT-DNA [1]): 1.45; Change in absorbance intensity (CT-DNA [2]): Hyperchromism

What does the source list for `[O-]C(=NN=Cc1cc(F)ccc1[O-])c1ccncc1.[O-]C(=NN=Cc1cc(F)ccc1[O-])c1ccncc1.[Ti+4]` [Ti-4-IF]?
n, number of binding sites (CT-DNA [1]): 1.02; Change in absorbance intensity (CT-DNA [2]): Hyperchromism

How did the “n, number of binding sites” value (CT-DNA [1]) turn out when `[O-]C(=NN=Cc1cc(Cl)ccc1[O-])c1ccncc1.[O-]C(=NN=Cc1cc(Cl)ccc1[O-])c1ccncc1.[Ti+4]` [Ti-5-ICl] was run?
Its value is 1.38.

And the “Change in absorbance intensity” value (CT-DNA [2])?
The value was “Hyperchromism”.

For `Brc1ccc2c(c1)C=NN=C(c1ccncc1)[O][Ti]1([O]C(c3ccncc3)=NN=Cc3cc(Br)ccc3[O]1)[O]2` (stereo not drawn) [Ti-6-IBr], which “n, number of binding sites” value (CT-DNA [1]) is on record?
The value was 1.01.

And the “Change in absorbance intensity” value (CT-DNA [2])?
Its value is “Hyperchromism”.
